In publication PMC10750279:
No constants are given. Whether binding was seen depends on the method and setting. In cells and extracts the contact can be indirect. Binding calls can cover weak binding; strength is not graded here.

Protein sequences, listed by entry. Tags and fused reporters are not part of them. Lines headed by an entry give the natural chain unless they say otherwise; changes in a name come on top.
UniProt P05556: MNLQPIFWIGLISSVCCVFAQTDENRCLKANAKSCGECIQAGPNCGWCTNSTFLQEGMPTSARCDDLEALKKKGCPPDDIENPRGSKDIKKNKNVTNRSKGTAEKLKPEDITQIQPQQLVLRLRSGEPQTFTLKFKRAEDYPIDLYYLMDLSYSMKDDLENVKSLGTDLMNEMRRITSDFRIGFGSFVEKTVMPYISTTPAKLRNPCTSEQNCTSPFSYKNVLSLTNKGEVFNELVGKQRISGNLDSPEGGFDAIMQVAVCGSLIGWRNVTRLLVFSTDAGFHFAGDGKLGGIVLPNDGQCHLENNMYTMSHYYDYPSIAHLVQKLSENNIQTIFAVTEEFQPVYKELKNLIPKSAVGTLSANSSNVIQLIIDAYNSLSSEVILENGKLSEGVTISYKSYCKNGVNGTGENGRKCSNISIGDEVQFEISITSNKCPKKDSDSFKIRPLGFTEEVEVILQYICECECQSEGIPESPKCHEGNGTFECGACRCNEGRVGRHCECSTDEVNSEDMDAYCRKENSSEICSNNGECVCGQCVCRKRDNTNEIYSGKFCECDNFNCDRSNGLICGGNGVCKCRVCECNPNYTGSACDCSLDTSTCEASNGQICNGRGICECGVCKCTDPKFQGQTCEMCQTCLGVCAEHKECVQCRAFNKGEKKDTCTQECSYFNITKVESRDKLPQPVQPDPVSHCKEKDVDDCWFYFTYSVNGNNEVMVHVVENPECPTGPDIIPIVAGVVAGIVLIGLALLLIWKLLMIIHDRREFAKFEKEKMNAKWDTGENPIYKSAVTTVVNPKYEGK
UniProt Q8IZW8: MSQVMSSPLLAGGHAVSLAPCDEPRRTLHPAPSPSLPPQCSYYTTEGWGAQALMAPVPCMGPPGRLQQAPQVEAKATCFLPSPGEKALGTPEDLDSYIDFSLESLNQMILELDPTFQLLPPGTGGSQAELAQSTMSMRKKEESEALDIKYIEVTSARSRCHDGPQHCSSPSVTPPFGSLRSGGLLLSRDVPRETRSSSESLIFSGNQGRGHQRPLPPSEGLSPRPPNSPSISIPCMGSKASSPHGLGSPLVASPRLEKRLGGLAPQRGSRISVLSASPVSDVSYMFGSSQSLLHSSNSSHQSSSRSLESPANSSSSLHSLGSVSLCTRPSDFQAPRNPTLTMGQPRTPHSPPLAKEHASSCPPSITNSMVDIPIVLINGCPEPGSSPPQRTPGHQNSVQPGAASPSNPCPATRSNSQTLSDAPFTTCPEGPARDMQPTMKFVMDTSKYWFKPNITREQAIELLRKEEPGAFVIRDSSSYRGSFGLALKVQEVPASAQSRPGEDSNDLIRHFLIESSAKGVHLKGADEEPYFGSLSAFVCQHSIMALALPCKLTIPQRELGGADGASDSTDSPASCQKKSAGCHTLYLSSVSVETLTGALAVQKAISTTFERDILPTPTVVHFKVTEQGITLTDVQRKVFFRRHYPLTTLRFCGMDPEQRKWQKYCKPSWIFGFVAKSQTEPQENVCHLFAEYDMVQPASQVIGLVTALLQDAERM

Target: integrin β1 (human (endogenous in HNSCC cell lines)) (UniProt P05556)
Assay: co-IP; HNSCC cells lysed in radioimmunoprecipitation assay buffer; supernatants incubated with primary antibodies or IgG control at 4°C overnight, then magnetic beads 8 h, western blotting; cells untreated or with TNS4 depletion (shTNS4/siTNS4), TNS4 overexpression or FAK inhibitor

binding: binds
Substance: tensin 4 (TNS4) (from UniProt Q8IZW8)
